Measured values published in paper PMC4446444, “Stable complex formation of CENP-B with the CENP-A nucleosome”.
For at least one entry, the source does not settle the construct or the ends of the probe. At least one verdict was read from the data and is not stated in words by the source. Tags and fusion partners may be left off the protein sequences shown.

Target: T1, His6-CENP-B DBD (Homo sapiens) (UniProt P07199)
T1 sequence (looked up): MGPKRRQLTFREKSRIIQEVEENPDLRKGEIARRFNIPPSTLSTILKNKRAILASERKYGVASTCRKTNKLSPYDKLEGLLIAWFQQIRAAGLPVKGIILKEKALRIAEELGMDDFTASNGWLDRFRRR
Test: pull-down
Conditions: preformed His6-DBD-DNA complex on Ni-NTA, used to capture CENP-A-H4; pull-down: 20 mM Tris-HCl pH 8.0, 300 mM NaCl, 60 mM imidazole, 0.3% Tween-20, 0.01 ug/ul BSA, 4 C, 60 min; recombinant protein; residues 1-129; protein details: His6

## GCCTTCGTTGGAAACGGGATT (double strand) [21-bp CENP-B box DNA]
  binding result: binds
